# According to PubChem BioAssay AID1471 (National Center for Advancing Translational Sciences (NCATS), 2008):
# Screen size: about 230,000 compounds; about 310 (0.13%) were called active. This list was built around the results that the source calls inconclusive (neither active nor inactive); the mix of calls is not that of the screen. The call rests on the fitted dose curve; in most records, active means well fitted activation curve with a large enough effect; inconclusive means small, poorly fitted or top-dose-only effect; inactive means no such curve, though single readings can be large or run the other way. A potency beside an inconclusive call is a rough fit, not a confirmed value.
# Test: qHTS Multiplex Assay to Identify Dual Action Probes in a Cell Model of Huntington: Cytoprotection (ATP); further: nearly all actives have a fitted effect of over 45% in size;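 on cytoprotection (ATP increase): toxic huntingtin expression switched on by the ecdysone agonist tebufenozide; % of control where 0% means no effect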
# Settings: PC12 HTT-Q103 induced, ATP luminescence, 40 h; cytoprotection (ATP increase): at 56.4 µM (top of the series) unless noted
# Method in brief: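 Compounds added alongside 100 nM tebufenozide, which induces toxic Q103 huntingtin exon 1-GFP in stable PC12 cells; surviving cells quantified by luminescent ATP measurement. Medium: phenol red-free DMEM, 5% equine and 5% calf serum.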
# Potency means the concentration at half of the fitted maximal effect.
Structure (SMILES),Potency,cytoprotection (ATP increase)
Cc1c(CCC(=O)O)c(=O)n2c([nH]c3ccccc32)c1C#N,inactive,–
CCc1ccc(OCC(=O)Nc2cccc3c2CCCC3)cc1,"inconclusive: 3.55 µM [activator, single point]",–
CSc1cccc(NC(=S)N(CCCN2CCCC2)Cc2cccn2Cc2ccc(Cl)cc2)c1,inactive,–
CC(C(=O)NC(C)(C)C)N(Cc1cccs1)C(=O)CCN1CCc2ccccc21 (centres undefined),"inconclusive: 35.5 µM [activator, single point]",–
CCC1CCC(C(=O)NNC(=O)c2cc(-c3ccco3)[nH]n2)CC1 (centres undefined),inactive,–
CCNC(=O)NC(=O)C(C)OC(=O)CCCc1nc2ccccc2s1 (centres undefined),"inconclusive: 0.794 µM [activator, partial curve]",–
Cc1ccc(OCc2ccc(C(=O)Nc3ccc(C(N)=O)cc3)o2)c([N+](=O)[O-])c1,–,inactive: 0% [at 10 µM]
O=C(Nc1sc2c(c1C(=O)c1ccc(Cl)cc1)CCCC2)c1cccnc1,–,inactive: -7.21% [at 10 µM]
Nc1nc(/C(=C/CC(=O)O)C(=O)NC2C(=O)N3C(C(=O)O)=CCSC23)cs1 (centres undefined),"inconclusive: 0.631 µM [activator, full curve, poor fit]",–
NC(N)=Nc1ccc(Cl)cc1,"inconclusive: 0.112 µM [activator, full curve]",–
CS(=O)(=O)NNC(=O)c1csc(Cc2c(Cl)sc3ccc(Cl)cc23)n1,"inconclusive: 5.62 µM [activator, single point]",–
O=S(=O)(CCN1CCN(C(c2ccccc2)c2ccccc2)CC1)C(F)(F)F,"inconclusive: 0.398 µM [activator, full curve, poor fit]",–
CC(C)(C)c1cc(C(=O)NCCN2CCCC2)cc(C(C)(C)C)c1,"inconclusive: 0.005 µM [activator, full curve, poor fit]",–
O=C(Cn1ncc2c(=O)oc3ccccc3c21)N1CCCc2ccccc21,"inconclusive: 3.16 µM [activator, single point]",–
O=C(CSc1ncnc2nc[nH]c12)Nc1ccc(Br)cc1Cl,–,inactive: 3.71% [at 10 µM]
CC(C)NC(=O)NC(=O)COC(=O)Cc1ccsc1,inactive,–
CCCCCCCCCCCCCC[n+]1ccc(C)cc1,inactive,–
O=C(CSc1nc2ccccc2[nH]1)N1CCN(c2ccc(F)cc2)CC1,inactive,–
C=C1C(=O)C=C[C@]2(C)C[C@@H]3OC(=O)[C@](C)(O)[C@H]3C[C@@H]12,"inconclusive: 5.62 µM [activator, single point]",–
CC(C)=CCC/C(C)=C/C=C/C(C)=C/C=C/C(C)=C/C=C/C=C(C)/C=C/C=C(C)/C=C/C=C(\C)CCC=C(C)C,"inconclusive: 35.5 µM [activator, single point]",–
O=c1[nH]c(SCc2n[nH]c(=S)n2-c2ccccc2)nc2ccccc12,inactive,–
CC(C)=CCN1CCN(Cc2cc(F)ccc2-n2nc(C)cc2C)CC1CCO (centres undefined),"inconclusive: 0.355 µM [activator, full curve, poor fit]",–

Structure (SMILES),Potency,cytoprotection (ATP increase)
COc1cccc([C@@H]2Oc3ccc(OC)cc3C(=O)[C@H]2OC(=O)Nc2ccc(C)c(Br)c2)c1,"inconclusive: 5.62 µM [activator, single point]",–
c1ccc(Nc2ccccc2Nc2ccccn2)nc1,"inconclusive: 0.1 µM [activator, full curve, poor fit]",–
CN[C@H]1[C@H](O)[C@@H](O[C@@H]2[C@H](O)[C@@H](O[C@H]3OC(CN)=CC[C@H]3N)[C@@H](N)C[C@H]2N)OC[C@@]1(C)O,"inconclusive: 12.6 µM [activator, single point]",–
Cn1cc(C(F)(F)F)nc1-c1ccc(OC[C@@H](O)CNCCOc2ccc(O)c(C(N)=O)c2)cc1,inconclusive: 0.0013 µM [activator],–
Cn1c(=O)[nH]c(=O)c2c1nc(NCCCn1ccnc1)n2CCOc1ccccc1,inactive,–
CCN1c2ccccc2NC2C1C(C(C)=O)C(=O)N2c1ccc(Cl)cc1 (centres undefined),inactive,–
Cc1noc(C)c1C(=O)N1CCC2(CC1)CCN(C(c1ccccc1)c1ccccc1)CC2,"inconclusive: 0.0056 µM [activator, full curve, poor fit]",–
C[n+]1ccccc1/C=N\O,"inconclusive: 8.91 µM [activator, single point]",–
CCCCN(C(=O)COc1ccc(NC(C)=O)cc1)C1CCS(=O)(=O)C1 (centres undefined),"inconclusive: 1 µM [activator, partial curve]",–
CCCCNC(=O)CSc1nc(CCC)nc2ccccc12,"inconclusive: 35.5 µM [activator, single point]",–
CC(=O)NC(=S)Nc1ccc([N+](=O)[O-])cc1C,active: 11.2 µM,–
CC(C)(C)OC(=O)NCCCC1=CC2=CC(=O)C(C)(OC(=O)C3CCCC3)C(=O)C2=CO1 (centres undefined),"inconclusive: 5.62 µM [activator, single point]",–
Cc1[nH]c2ccccc2c(=O)c1C(=O)/C=C/c1ccccc1,–,inactive: -4.63% [at 10 µM]
Cc1nnc(NC(=O)COc2ccc3c(C)cc(=O)oc3c2)s1,"inconclusive: 4.47 µM [activator, partial curve, poor fit]",–
Oc1ccccc1N=Cc1ccc[nH]1,–,inactive: -1.95% [at 0.074 µM]
CC(=O)OCCNc1cc(Sc2nc3ccccc3[nH]2)c2nonc2c1[N+](=O)[O-],–,inactive: -34.7% [at 10 µM]
Nc1nc(SCC(=O)c2cc3ccccc3o2)n[nH]1,"inconclusive: 5.01 µM [activator, single point]",–
NCCCCN=C(N)N,"inconclusive: 0.708 µM [activator, partial curve]",–
O=C(COC(=O)c1ccccc1NC(=O)c1ccco1)NC1CC1,"inconclusive: 1 µM [activator, single point]",–
c1ccc2c(-n3ccnc3)nc(-c3ccoc3)nc2c1,"inconclusive: 39.8 µM [activator, single point]",–
O=C(c1ccco1)N1CCC[C@@]2(CCN(c3ccccc3)C2)C1,"inconclusive: 0.708 µM [activator, single point]",–
Nc1nc(-c2ccccc2)c(-c2ccccc2)s1,"inconclusive: 0.501 µM [activator, single point]",–

# Some of the entries so far, as tab-separated lines:
Structure (SMILES)	Potency	cytoprotection (ATP increase)
CC(C)(C)OC(=O)NCCCC1=CC2=CC(=O)C(C)(OC(=O)C3CCCC3)C(=O)C2=CO1 (centres undefined)	inconclusive: 5.62 µM [activator, single point]	–
Cc1nnc(NC(=O)COc2ccc3c(C)cc(=O)oc3c2)s1	inconclusive: 4.47 µM [activator, partial curve, poor fit]	–
O=C(COC(=O)c1ccccc1NC(=O)c1ccco1)NC1CC1	inconclusive: 1 µM [activator, single point]	–
